Patent US9999664B2, “HIV-1 gp120 mini V3 loop and uses thereof” (The Scripps Research Institute, priority 2011, dated 2018)
These are yes or no findings as the source states them, for the method shown. Some entries that bind do so weakly or less than the wild type.

Amino acid sequences for entries named in this document (tags omitted). Residues count along the entry.
UniProt P61823, residues 27-150: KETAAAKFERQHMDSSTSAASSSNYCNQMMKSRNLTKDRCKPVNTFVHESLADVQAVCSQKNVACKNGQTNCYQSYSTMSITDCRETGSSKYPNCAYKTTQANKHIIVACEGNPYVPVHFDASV

Biological target: RNAse B (UniProt P61823)
Test: ELISA on coated RNAse B, HRP-conjugated lectin, absorbance at 450 nm

B1: GNL (450nm) (protein)
chain: DNILYSGETLSTGEFLNYGSFVFIMQEDCNLVLYDVDKPIWATNTGGLSRSCFLSMQTDGNLVVYNPSNKPIWASNTGGQNGNYVCILQKDRNVVIYGTDRWATG
  binding: binds
